Experimental data taken from article PMC12782253.
These are yes or no findings as the source states them, for the method shown. In cells and extracts the contact can be indirect. Some entries that bind do so weakly or less than the wild type.

Sequences of proteins named here, by UniProt entry; tags and fusion partners are left off.
UniProt O95235: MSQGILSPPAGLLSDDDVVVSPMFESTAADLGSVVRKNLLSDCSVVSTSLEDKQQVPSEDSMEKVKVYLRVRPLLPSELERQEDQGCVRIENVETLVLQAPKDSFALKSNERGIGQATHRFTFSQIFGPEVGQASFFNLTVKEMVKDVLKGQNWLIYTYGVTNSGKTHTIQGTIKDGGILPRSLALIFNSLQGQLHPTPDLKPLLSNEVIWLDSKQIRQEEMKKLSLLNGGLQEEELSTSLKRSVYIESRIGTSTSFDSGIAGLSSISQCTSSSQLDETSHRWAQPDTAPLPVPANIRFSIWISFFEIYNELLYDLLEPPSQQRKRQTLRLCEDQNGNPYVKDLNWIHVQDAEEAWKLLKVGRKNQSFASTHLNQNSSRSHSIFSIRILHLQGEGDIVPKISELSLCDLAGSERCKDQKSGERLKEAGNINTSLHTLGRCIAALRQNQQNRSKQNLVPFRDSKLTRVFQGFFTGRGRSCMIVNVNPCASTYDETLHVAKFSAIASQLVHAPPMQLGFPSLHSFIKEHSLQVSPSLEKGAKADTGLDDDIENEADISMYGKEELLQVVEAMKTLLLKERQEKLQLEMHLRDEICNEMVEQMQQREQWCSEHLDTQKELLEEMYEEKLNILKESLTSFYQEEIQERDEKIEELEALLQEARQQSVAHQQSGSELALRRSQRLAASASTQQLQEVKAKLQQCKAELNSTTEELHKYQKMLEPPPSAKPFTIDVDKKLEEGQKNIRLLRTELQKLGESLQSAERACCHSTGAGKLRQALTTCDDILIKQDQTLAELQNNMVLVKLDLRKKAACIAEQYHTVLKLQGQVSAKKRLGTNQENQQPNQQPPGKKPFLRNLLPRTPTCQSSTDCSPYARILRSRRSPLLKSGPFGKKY
UniProt O43683: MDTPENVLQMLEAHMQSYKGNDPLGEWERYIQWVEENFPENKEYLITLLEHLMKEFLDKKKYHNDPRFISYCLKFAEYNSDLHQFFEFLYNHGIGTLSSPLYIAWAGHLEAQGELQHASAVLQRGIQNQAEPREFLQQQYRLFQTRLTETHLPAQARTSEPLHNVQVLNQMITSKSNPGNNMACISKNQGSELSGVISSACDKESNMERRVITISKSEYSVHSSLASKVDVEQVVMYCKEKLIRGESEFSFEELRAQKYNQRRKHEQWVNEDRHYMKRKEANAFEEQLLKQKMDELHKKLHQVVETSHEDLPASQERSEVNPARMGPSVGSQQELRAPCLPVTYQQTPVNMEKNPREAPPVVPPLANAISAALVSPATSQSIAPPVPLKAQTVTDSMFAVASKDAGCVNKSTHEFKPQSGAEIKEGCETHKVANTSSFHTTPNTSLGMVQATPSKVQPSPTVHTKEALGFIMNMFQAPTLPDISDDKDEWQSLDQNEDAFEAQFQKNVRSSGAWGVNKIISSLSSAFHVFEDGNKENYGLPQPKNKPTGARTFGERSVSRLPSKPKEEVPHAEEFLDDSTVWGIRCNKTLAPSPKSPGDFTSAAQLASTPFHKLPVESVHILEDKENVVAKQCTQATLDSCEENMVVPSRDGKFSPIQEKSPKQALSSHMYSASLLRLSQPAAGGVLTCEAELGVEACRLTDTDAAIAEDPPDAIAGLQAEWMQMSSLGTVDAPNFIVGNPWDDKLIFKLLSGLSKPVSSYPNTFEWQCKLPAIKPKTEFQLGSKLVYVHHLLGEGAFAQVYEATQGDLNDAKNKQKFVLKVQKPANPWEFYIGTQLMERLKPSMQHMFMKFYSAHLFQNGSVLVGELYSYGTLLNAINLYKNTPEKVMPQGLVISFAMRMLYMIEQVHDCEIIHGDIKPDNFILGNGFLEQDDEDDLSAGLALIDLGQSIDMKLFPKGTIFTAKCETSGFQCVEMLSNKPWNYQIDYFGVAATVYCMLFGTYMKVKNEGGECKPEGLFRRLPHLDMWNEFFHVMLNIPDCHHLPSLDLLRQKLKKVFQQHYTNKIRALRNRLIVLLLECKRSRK

Target: Kinesin family member 20A (human (endogenous in CaSki and C-33A)) (UniProt O95235)
Test: co-IP; CaSki and C-33A cell lysates (500 ug, RIPA lysis buffer: 50 mM Tris pH 7.4, 150 mM NaCl, 1% Triton X-100, 1% sodium deoxycholate, 0.1% SDS) incubated overnight at 4°C with 2 ug IgG, KIF20A or BUB1 antibody; Protein A-Sepharose CL-4B beads; Western blot

## Budding uninhibited by benzimidazole 1 (from UniProt O43683 1-1085)
  binding: binds
